The values that follow come from PubChem BioAssay AID328 (DTP/NCI, 2004).

Each structure is given as a SMILES string. The list shows only some results of the screen, not a fair sample: it gathers tests that were run many times, whatever their T/C, doses with no T/C, and many T/C values between a quarter and a half above the control. Other doses and runs of a compound stand elsewhere. T/C is the treated group as % of the vehicle group. Some entries give survivors of the animals treated and no T/C: the source files T/C as zero there, which appears to mark a toxic dose or a test without result, not a measured value. Some survivor counts are full or nearly so, which does not show that the dose was tolerated: the source hardly ever lists a survival T/C far under the control, and the zero likely stands for such cases as well. Counts of survivors are from the toxicity check (mostly the fifth day) where no day follows; animals may have died later. Schedule codes are those of the source, taken here to give the interval after Q, in days (D) or hours (H), and the number of doses after X. Marks such as (2×) give the number of equal values in this list. Some entries were tested several times; their values stand side by side, smallest first. Some structures stand for samples that the source files as different forms (salt, stereo form or complex); doses refer to the form tested. For survival time, the PubChem record calls one and a half times the control and up active, and a quarter to a half above the control has no call in these data; cut-offs in other NCI protocols can differ. Some T/C values are followed by the survivors on the day toxicity was checked, most often the fifth; where none is given, no animal had died by that day.

For this assay, the system named is BDF1 mice, P388 leukemia ip, median survival T/C. As to the kind of experiment: NCI In Vivo Anticancer Drug Screen. Data for tumor model P388 Leukemia (intraperitoneal) in B6D2F1 (BDF1) mice. Particulars: T/C endpoint: median survival time, higher T/C = longer survival. In a few lines: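 Steps: implant the tumour, treat one group with compound and another with vehicle, record survival, then divide treated by control.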

Setting [1] is: dose: 50.0 mg/kg/injection, schedule: Q01DX009 (ip), vehicle: saline.
Setting [2] is: dose: 400.0 mg/kg/injection, schedule: Q04DX003 (ip), vehicle: Klucel (hydroxypropylcellulose) (HPC).

As to `CC[N+](CC)(CC)CCCCCCCC[N+](CC)(CC)CC`, the survivor count (dose: 4.0 mg/kg/injection, schedule: Q01DX009 (ip), vehicle: water) is reported as 2 of 6; the survivor count (dose: 4.0 mg/kg/injection, schedule: Q04DX003 (ip), vehicle: water) is recorded as 2 of 6; the survivor count (dose: 6.0 mg/kg/injection, schedule: Q01DX009 (ip), vehicle: water) is 0 of 6; the survivor count (dose: 6.0 mg/kg/injection, schedule: Q04DX003 (ip), vehicle: water) is 0 of 6.

Regarding `S=P(N1CC1)(N1CC1)N1CC1`, the T/C by setting is: (dose: 0.38 mg/kg/injection, schedule: Q01DX009 (ip), vehicle: saline) 134 % of control; (dose: 0.75 mg/kg/injection, schedule: Q01DX009 (ip), vehicle: saline) 130 % of control; (dose: 1.0 mg/kg/injection, schedule: Q01DX009 (ip), vehicle: saline, evaluated on day 30) 98, 111, 121, 224 % of control; (dose: 1.0 mg/kg/injection, schedule: Q01DX009 (ip), vehicle: saline, evaluated on day 60) 104 % of control; (dose: 1.5 mg/kg/injection, schedule: Q01DX009 (ip), vehicle: saline, evaluated on day 30) 130 % of control; (dose: 1.5 mg/kg/injection, schedule: Q01DX009 (ip), vehicle: saline, evaluated on day 60) 127 % of control. The T/C runs as follows: (dose: 2.0 mg/kg/injection, schedule: Q01DX001 (oral), vehicle: saline) 133 % of control [9 of 10 alive]; (dose: 2.0 mg/kg/injection, schedule: Q01DX009 (ip), vehicle: saline, evaluated on day 30) 110, 111, 129, 214 % of control; (dose: 2.0 mg/kg/injection, schedule: Q01DX009 (ip), vehicle: saline, evaluated on day 60) 130 % of control; (dose: 3.0 mg/kg/injection, schedule: Q01DX009 (ip), vehicle: saline) 132 and 135 % of control; (dose: 3.0 mg/kg/injection, schedule: Q01DX010 (ip), vehicle: saline) 130 and 131 % of control; (dose: 4.0 mg/kg/injection, schedule: Q01DX009 (ip), vehicle: saline, evaluated on day 30) 146, 151 (2×), 205 % of control. The T/C was 193 % of control (dose: 4.0 mg/kg/injection, schedule: Q01DX009 (ip), vehicle: saline, evaluated on day 60); 91, 92, 100, 111 % of control (dose: 8.0 mg/kg/injection, schedule: Q01DX009 (ip), vehicle: saline, evaluated on day 30); 120 % of control (dose: 8.0 mg/kg/injection, schedule: Q01DX009 (ip), vehicle: saline, evaluated on day 60). The survivor count is, setting by setting: (dose: 0.75 mg/kg/injection, schedule: Q01DX010 (ip), vehicle: saline) 6 of 6; (dose: 4.0 mg/kg/injection, schedule: Q01DX001 (oral), vehicle: saline) 5 of 10; (dose: 8.0 mg/kg/injection, schedule: Q01DX001 (oral), vehicle: saline) 2 of 10; (dose: 12.0 mg/kg/injection, schedule: Q01DX009 (ip), vehicle: saline) 10 of 10 (2×); (dose: 16.0 mg/kg/injection, schedule: Q01DX001 (oral), vehicle: saline) 2 of 10; (dose: 16.0 mg/kg/injection, schedule: Q01DX009 (ip), vehicle: saline) 8 of 10, 10 of 10, 6 of 6. For the same molecule, the survivor count reads like this: (dose: 24.0 mg/kg/injection, schedule: Q01DX009 (ip), vehicle: saline) 0 of 10 and 10 of 10; (dose: 32.0 mg/kg/injection, schedule: Q01DX001 (oral), vehicle: saline) 0 of 10; (dose: 32.0 mg/kg/injection, schedule: Q01DX009 (ip), vehicle: saline) 4 of 10, 5 of 10, 5 of 6; (dose: 64.0 mg/kg/injection, schedule: Q01DX001 (oral), vehicle: saline) 0 of 10; (dose: 64.0 mg/kg/injection, schedule: Q01DX009 (ip), vehicle: saline) 1 of 10, 6 of 10, 5 of 6; (dose: 128.0 mg/kg/injection, schedule: Q01DX001 (oral), vehicle: saline) 1 of 10. Moreover, the survivor count was 1 of 10 (dose: 256.0 mg/kg/injection, schedule: Q01DX001 (oral), vehicle: saline) and 0 of 10 (dose: 512.0 mg/kg/injection, schedule: Q01DX001 (oral), vehicle: saline).

Turning to `c1ccc(-c2oc3cc4c(cc3c2-c2ccc(OCCN3CCCC3)cc2)CCC4)cc1`, the survivor count was 6 of 6 (dose: 200.0 mg/kg/injection, schedule: Q04DX003 (ip), vehicle: saline with Tween-80) and 4 of 6 (dose: 400.0 mg/kg/injection, schedule: Q04DX003 (ip), vehicle: saline with Tween-80).

Regarding `[N-]=[N+]=NCc1cnccn1`, under setting [1], the survivor count was 1 of 6.

On to `CC[n+]1c(-c2ccccc2)c2cc(N)ccc2c2ccc(N)cc21`, for which the T/C runs as follows: (dose: 0.78 mg/kg/injection, schedule: Q01DX009 (ip), vehicle: saline) 133 % of control; (dose: 1.56 mg/kg/injection, schedule: Q01DX009 (ip), vehicle: water) 140 % of control; (dose: 2.5 mg/kg/injection, schedule: Q01DX010 (ip), vehicle: saline) 133 and 140 % of control; (dose: 3.13 mg/kg/injection, schedule: Q01DX009 (ip), vehicle: water) 143 % of control; (dose: 5.0 mg/kg/injection, schedule: Q01DX010 (ip), vehicle: saline) 133 % of control. The survivor count was 3 of 6 (dose: 18.0 mg/kg/injection, schedule: Q01DX009 (ip), vehicle: saline); 5 of 6 (dose: 25.0 mg/kg/injection, schedule: Q01DX009 (ip), vehicle: saline with Tween-80); 5 of 5 (dose: 25.0 mg/kg/injection, schedule: Q01DX009 (ip), vehicle: water); 4 of 6 (dose: 50.0 mg/kg/injection, schedule: Q01DX009 (ip), vehicle: saline with Tween-80); 5 of 6 under setting [1]; 2 of 6 (dose: 100.0 mg/kg/injection, schedule: Q01DX009 (ip), vehicle: saline). For the same molecule, for the setting “dose: 200.0 mg/kg/injection, schedule: Q01DX009 (ip), vehicle: saline”, the survivor count is reported as 0 of 6.

For the molecule `C=C1C(=O)O[C@@H]2CC(CO)=C([C@@H](C)CCCO)[C@@H](OC(=O)/C(C)=C\C)[C@H]12`, the T/C (dose: 32.0 mg/kg/injection, schedule: Q01DX009 (ip), vehicle: saline + alcohol) was 128 % of control.

Take `Nc1ccc2ccccc2c1N=Nc1ccccc1`: the T/C by setting is: (dose: 264.0 mg/kg/injection, schedule: Q04DX003 (ip), vehicle: Klucel (hydroxypropylcellulose) (HPC)) 133 % of control; under setting [2], 128 and 133 % of control.

On to `C/C(=C\c1ccc2c(c1)OCO2)[N+](=O)[O-]`, for which the T/C is 136 % of control [5 of 6 alive] (dose: 100.0 mg/kg/injection, schedule: Q04DX003 (ip), vehicle: Klucel (hydroxypropylcellulose) (HPC)) and 140 % of control (dose: 200.0 mg/kg/injection, schedule: Q04DX003 (ip), vehicle: Klucel (hydroxypropylcellulose) (HPC)). Also, the survivor count (dose: 300.0 mg/kg/injection, schedule: Q04DX003 (ip), vehicle: Klucel (hydroxypropylcellulose) (HPC)) is reported as 5 of 6 and the survivor count under setting [2] is listed as 3 of 6.

On to `CC(=O)CC(C)=O.CC(=O)CC(C)=O.CC(=O)CC(C)=O.[Ga]`, for which the survivor count (dose: 4.0 mg/kg/injection, schedule: Q01DX009 (ip), vehicle: other) is listed as 6 of 6; the survivor count (dose: 8.0 mg/kg/injection, schedule: Q01DX009 (ip), vehicle: other) is 6 of 6; the survivor count (dose: 16.0 mg/kg/injection, schedule: Q01DX009 (ip), vehicle: other) is given as 6 of 6; the survivor count (dose: 32.0 mg/kg/injection, schedule: Q01DX009 (ip), vehicle: other) is on record as 6 of 6; the survivor count (dose: 100.0 mg/kg/injection, schedule: Q04DX003 (ip), vehicle: saline) is 4 of 6; the survivor count (dose: 200.0 mg/kg/injection, schedule: Q04DX003 (ip), vehicle: saline) is 6 of 6. Further, the survivor count (dose: 400.0 mg/kg/injection, schedule: Q04DX003 (ip), vehicle: saline) was 6 of 6.
